Source: PubChem BioAssay AID504467 (National Center for Advancing Translational Sciences (NCATS), 2011)
The campaign covered roughly 330,000 compounds. About 7,700 (2.3%) were called active. Inconclusive results, whose numbers are uncertain, are shown with a selection of clear calls. Calls follow the shape of the dose curve; as a rule, active = well fitted inhibition curve with a large enough effect; inconclusive = small, poorly fitted or top-dose-only effect, or effect the other way; inactive = flat fitted curve, though single readings scatter. A potency beside an inconclusive call is a rough fit, not a confirmed value.

Assay: qHTS screen for small molecules that inhibit ELG1-dependent DNA repair in human embryonic kidney (HEK293T) cells expressing luciferase-tagged ELG1; also: nearly all actives have a fitted effect of over 55% in size
Details: HEK293T ELG1-luciferase reporter, luminescence, 16 h, DNA damage induced by 5-fluorouridine; activity change, negative = inhibition: at 46.1 µM (top of the series)
In short: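 5-Fluorouridine DNA damage + compound/DMSO, 2,000 cells/well, 16 h, 37 °C/5% CO2. ONE-Glo, 30 min RT, luminescence. Readout = decrease in reporter signal.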
% is scaled to controls: 0 for no effect and ±100 for the full control effect; potency is read from the fitted curve at half-maximal effect.

Compound | Potency | activity change, negative = inhibition
CCOc1ccc2nc(NC(=O)Cn3c(C)csc3=O)sc2c1 | inconclusive: 4.11 µM [activator, partial curve, poor fit] | 
O=C(Nc1ccc(NC(=O)c2cc3ccccc3o2)cc1)c1ccc2c(c1)OCCO2 |  | inconclusive: 19.4% [activator]
Cc1ccc(NS(=O)(=O)c2ccc(C(=O)NC3CCN(Cc4ccccc4)CC3)cc2)cc1 | inconclusive: 2.06 µM [inhibitor, partial curve, poor fit] | 
CCc1cc2c(-c3ccccc3)cc(=O)oc2cc1OC(C)C(C)=O (centres undefined) | inconclusive: 29.1 µM [inhibitor, single point] | 
O=C(Nc1ccccc1O)c1ccc(NC(=O)C2CC2)cc1 | inconclusive: 20.6 µM [activator, partial curve] | 
Cc1cc(CSC(=N)N)c(CSC(=N)N)cc1C | inactive | 
O=C1OC(c2cccs2)=N/C1=C\c1ccc(-c2cccc(Cl)c2)o1 | inactive | 
O=C(CSc1ccc(Cl)cc1)NCc1ccco1 | inconclusive: 13 µM [activator, partial curve] | 
O=C(NC1CC1)C1=C[C@@H](c2ccccc2)C[C@@H](OCc2ccc(CO)cc2)O1 | inconclusive: 5.8 µM [activator, full curve, poor fit] | 
CN(C)S(=O)(=O)c1ccc(C(=O)Nc2ccccc2F)cc1 | inconclusive: 14.6 µM [activator, partial curve, poor fit] | 
O=C(N/N=C/c1ccccc1Br)c1cccc(S(=O)(=O)N2CCOCC2)c1 | inconclusive: 18.3 µM [inhibitor, single point] | 
O=C(Cn1nc(-c2ccc3c(c2)OCCO3)ccc1=O)Nc1cccc(NC(=O)c2ccccn2)c1 | inconclusive: 29.1 µM [activator, single point] | 
COC(=O)c1sc(NC(=O)/C=C/c2ccc(C)o2)nc1C | inconclusive: 6.51 µM [activator, partial curve] | 
O=[N+]([O-])c1ccc(C=Nc2ccc(Cl)cc2Cl)s1 | inconclusive: 29.1 µM [inhibitor, single point] | 
CCOC(=O)N1CCN(C(=O)COC(=O)CN(C)S(=O)(=O)c2ccc(NC(C)=O)cc2)CC1 | inactive | 
Clc1ccc(CSc2cc3c(nn2)-c2ccccc2CC3)cc1Cl | inconclusive: 20.6 µM [activator, partial curve, poor fit] | 
Cc1cc(C(=O)Cn2nnc3ccccc3c2=O)c(C)n1Cc1cccs1 | inconclusive: 0.82 µM [activator, partial curve] | 
O=C(O)c1ccc(COc2ccc(Cl)cc2)o1 | inconclusive: 25.9 µM [activator, single point] | 
C=CC[C@@H](CC(=O)N[C@H](CO)Cc1ccccc1)C(=O)N[C@H](C)COC(=O)[C@@H](CC=C)CC(=O)OC(C)(C)C | inactive | 
O=C(NCCNC(=O)c1ccc(Br)o1)c1cccnc1 | inactive | 
CC(=O)n1cc([C@@H]2C=C(C(=O)NCc3ccccc3)O[C@H](OCc3ccc(CO)cc3)C2)c2ccccc21 | inconclusive: 18.3 µM [inhibitor, single point] | 
CC(C)(C)c1ccc(/C=N/N2CCN(c3ccccn3)CC2)cc1 | inconclusive: 23.1 µM [inhibitor, single point] | 

Compound | Potency | activity change, negative = inhibition
O=C(c1ccc(Cl)cc1)c1ccc(OCC(O)CN2CCCCC2)cc1 (centres undefined) | inconclusive: 16.4 µM [inhibitor, partial curve] | 
Cn1cc(C(=O)C(=O)N2CCCc3ccccc32)c2ccccc21 | inactive | 
CC(=O)N1N=C(c2cccc(NS(=O)(=O)c3ccc(C)cc3)c2)CC1c1ccco1 (centres undefined) | inconclusive: 29.1 µM [inhibitor, single point] | 
Nc1ccc(C(=O)Nc2ccc3nc(-c4cccnc4)[nH]c3c2)cc1 | inactive | 
O=C1/C(=C/c2ccc(C(=O)O)cc2)CCC/C1=C\c1ccc(C(=O)O)cc1 | inactive | 
CCOC(=O)N1CCC(NC(=O)C2CCN(C(=O)N3CC(C)Oc4ccccc43)CC2)CC1 (centres undefined) | inconclusive: 18.4 µM [inhibitor, partial curve] | 
Cc1cc(C)nc(N2CCCC(C(=O)NCc3ccc4c(c3)OCO4)C2)n1 (centres undefined) | inconclusive: 16.4 µM [inhibitor, partial curve, poor fit] | 
CN1CCN(/N=C/c2ccc(C#N)cc2)CC1 | inconclusive: 29.1 µM [activator, single point] | 
O=C(/C=C/c1ccco1)OCc1nnc(-c2ccc(Cl)cc2)o1 | inactive | 
O=C(N/N=C/c1ccccc1Br)c1ccc(CSc2cccc3cccnc23)cc1 | active: 20.6 µM | 
Cc1sc2ncnc(OCC(=O)c3ccc(S(=O)(=O)N4CCCC4)cc3)c2c1C | inconclusive: 35.5 µM [inhibitor, single point] | 
COc1cc(F)ccc1S(=O)(=O)N1CCN(Cc2ccccc2)CC1 | inconclusive: 35.5 µM [inhibitor, single point] | 
COc1ccc(C2C(C#N)=C(N)N(c3cccnc3)C3=C2C(=O)CC(C)(C)C3)cc1OC (centres undefined) | inactive | 
O=C(CSc1n[nH]c(-c2ccncc2)n1)Nc1ccccc1Cl | inactive | 
CCn1nnnc1SCC(=O)Nc1nnc(C(C)C)s1 | inconclusive: 23.1 µM [activator, single point] | 
COc1ccc(-c2cc3nc(C)c(CCC(=O)NC(C)CCc4ccco4)c(C)n3n2)c(OC)c1 (centres undefined) | inconclusive: 20.6 µM [inhibitor, single point] | 
Cc1cccc(C)c1NC(=O)COn1nnc2ccc(C(F)(F)F)cc21 | inactive | 
CCOc1ccc(NC(=O)Cn2nnc(-c3ccccc3NC(=O)CC)n2)cc1 | inconclusive: 16.4 µM [inhibitor, single point] | 
Cc1c(OCc2ccccc2)c(=O)ccn1Cc1ccc(F)cc1 | inconclusive: 20.6 µM [inhibitor, single point] | 
O=C(NCc1ccccn1)C(=O)N/N=C/c1ccccc1O | inactive | 
COC(=O)C1=C(C)Nc2ccc(C)cc2S1 | inconclusive: 16.4 µM [activator, partial curve, poor fit] | 
CCn1nc([N+](=O)[O-])c2c(-c3nc4ccccc4o3)c(N)n(CCCOC)c2c1=O | inconclusive: 4.61 µM [inhibitor, single point] | 

Ordered by heavy-atom count (high to low): part of the list above
Compound | Potency | activity change, negative = inhibition
O=C(Nc1ccc(NC(=O)c2cc3ccccc3o2)cc1)c1ccc2c(c1)OCCO2 |  | inconclusive: 19.4% [activator]
Nc1ccc(C(=O)Nc2ccc3nc(-c4cccnc4)[nH]c3c2)cc1 | inactive | 
O=C(NCc1ccccn1)C(=O)N/N=C/c1ccccc1O | inactive | 
